Some entries share one result that the patent states for a list of compounds.
Biological target: T1, Mdm2/p53 binding (His-p53 and GST-Mdm2) (Homo sapiens, UniProt Q00987, L33E)
T1 construct: a Mdm2 partial protein, having Mdm2 amino acids at positions 25 to 108 with leucine residue 33 substituted by glutamic acid
Experiment: Mdm2/p53 binding assay (HTRF, time-resolved fluorescence)
Settings: His-p53 (aa 1 to 132) and GST-Mdm2 (aa 25 to 108, L33E), 6.25 nM each; 25°C for 1 hour; sigmoid fitting; read-out: Mdm2/p53 binding inhibiting activity of IC50

The chains behind the UniProt entries cited, without tags or fusion partners. Residues count along the entry.
UniProt Q00987, 25-108 L33E, species assumed: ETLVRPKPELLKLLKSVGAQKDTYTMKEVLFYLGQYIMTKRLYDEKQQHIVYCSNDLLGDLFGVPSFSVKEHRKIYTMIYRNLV

Compound: CC(C)C1=C(C(=O)N2C(=O)CC[C@H]2C(=O)N2CCNC3(CC3)C2)SC2=N[C@@](C)(c3ccc(Cl)cc3)[C@@H](c3ccc(Cl)cc3)N21 [Example 42, (5S)-1-{[(5R,6S)-5,6-bis(4-chlorophenyl)-3-isopropyl-6-methyl-5,6-dihydroimidazo[2,1-b][1,3]thiazol-2-yl]carbonyl}-5-(4,7-diazaspiro[2.5]oct-7-ylcarbonyl)pyrrolidin-2-one]
- IC50: < 200 nM

Compound: CC(C)C1=C(C(=O)N2C(=O)CC[C@H]2C(=O)N2CCN(C)C3(CC3)C2)SC2=N[C@@](C)(c3ccc(Cl)cc3)[C@@H](c3ccc(Cl)cc3)N21 [Example 43, (5S)-1-{[(5R,6S)-5,6-bis(4-chlorophenyl)-3-isopropyl-6-methyl-5,6-dihydroimidazo[2,1-b][1,3]thiazol-2-yl]carbonyl}-5-[(4-methyl-4,7-diazaspiro[2.5]oct-7-yl)carbonyl]pyrrolidin-2-one]
- IC50: < 200 nM

Compound: CC(C)C1=C(C(=O)N2C(=O)CC[C@H]2C(=O)N2CCNC3(CC3)C2)SC2=N[C@@](C)(c3ccc(Cl)nc3)[C@@H](c3ccc(Cl)c(F)c3)N21 [Example 44, (5S)-1-{[(5R,6S)-5-(4-chloro-3-fluorophenyl)-6-(6-chloropyridin-3-yl)-3-isopropyl-6-methyl-5,6-dihydroimidazo[2,1-b][1,3]thiazol-2-yl]carbonyl}-5-(4,7-diazaspiro[2.5]oct-7-ylcarbonyl)pyrrolidin-2-one]
- IC50: < 200 nM

Compound: CC(=O)N1CCN(C(=O)[C@@H]2CCC(=O)N2C(=O)C2=C(C(C)C)N3C(=N[C@@](C)(c4ccc(Cl)nc4)[C@H]3c3ccc(Cl)c(F)c3)S2)CC12CC2 [Example 45, (5S)-5-[(4-acetyl-4,7-diazaspiro[2.5]oct-7-yl)carbonyl]-1-{[(5R,6S)-5-(4-chloro-3-fluorophenyl)-6-(6-chloropyridin-3-yl)-3-isopropyl-6-methyl-5,6-dihydroimidazo[2,1-b][1,3]thiazol-2-yl]carbonyl}pyrrolidin-2-one]
- IC50: < 200 nM

Compound: CC(C)C1=C(C(=O)N(CC(=O)N2CCNC3(CC3)C2)C(C)C)SC2=N[C@@](C)(c3ccc(Cl)cc3)[C@@H](c3ccc(Cl)cc3)N21 [Example 46, (5R,6S)-5,6-bis(4-chlorophenyl)-N-[2-(4,7-diazaspiro[2.5]oct-7-yl)-2-oxoethyl]-N,3-diisopropyl-6-methyl-5,6-dihydroimidazo[2,1-b][1,3]thiazole-2-carboxamide]
- IC50: < 200 nM

Compound: CC(C)C1=C(C(=O)N(CC(=O)N2CCN(C)C3(CC3)C2)C(C)C)SC2=N[C@@](C)(c3ccc(Cl)cc3)[C@@H](c3ccc(Cl)cc3)N21 [Example 47, (5R,6S)-5,6-bis(4-chlorophenyl)-N,3-diisopropyl-6-methyl-N-[2-(4-methyl-4,7-diazaspiro[2.5]oct-7-yl)-2-oxoethyl]-5,6-dihydroimidazo[2,1-b][1,3]thiazole-2-carboxamide]
- IC50: < 200 nM

Compound: CC(C)C1=C(C(=O)N(CCO)CC(=O)N2CCNC3(CC3)C2)SC2=N[C@@](C)(c3ccc(Cl)cc3)[C@@H](c3ccc(Cl)cc3)N21 [Example 48, (5R,6S)-5,6-bis(4-chlorophenyl)-N-[2-(4,7-diazaspiro[2.5]oct-7-yl)-2-oxoethyl]-N-(2-hydroxyethyl)-3-isopropyl-6-methyl-5,6-dihydroimidazo[2,1-b][1,3]thiazole-2-carboxamide]
- IC50: < 200 nM

Compound: CC(C)C1=C(C(=O)N(CCO)CC(=O)N2CCN(C)C3(CC3)C2)SC2=N[C@@](C)(c3ccc(Cl)cc3)[C@@H](c3ccc(Cl)cc3)N21 [Example 49, (5R,6S)-5,6-bis(4-chlorophenyl)-N-(2-hydroxyethyl)-3-isopropyl-6-methyl-N-[2-(4-methyl-4,7-diazaspiro[2.5]oct-7-yl)-2-oxoethyl]-5,6-dihydroimidazo[2,1-b][1,3]thiazole-2-carboxamide]
- IC50: < 200 nM

Compound: CCN(C(=O)C1=C(C(C)C)N2C(=N[C@@](C)(c3ccc(Cl)cc3)[C@H]2c2ccc(Cl)cc2)S1)C1(C(=O)N2CCNC3(CC3)C2)CC1 [Example 50, (5R,6S)-5,6-bis(4-chlorophenyl)-N-[1-(4,7-diazaspiro[2.5]oct-7-ylcarbonyl)cyclopropyl]-N-ethyl-3-isopropyl-6-methyl-5,6-dihydroimidazo[2,1-b][1,3] thiazole-2-carboxamide]
- IC50: < 200 nM

Compound: CCN(C(=O)C1=C(C(C)C)N2C(=N[C@@](C)(c3ccc(Cl)cc3)[C@H]2c2ccc(Cl)cc2)S1)C1(C(=O)N2CCN(C)C3(CC3)C2)CC1 [Example 51, (5R,6S)-5,6-bis(4-chlorophenyl)-N-ethyl-3-isopropyl-6-methyl-N-{1-[(4-methyl-4,7-diazaspiro[2.5]oct-7-yl)carbonyl]cyclopropyl}-5,6-dihydroimidazo[2,1-b][1,3]thiazole-2-carboxamide]
- IC50: < 200 nM

Compound: CCN(C(=O)C1=C(C(C)C)N2C(=N[C@@](C)(c3ccc(Cl)cc3)[C@H]2c2ccc(Cl)c(F)c2)S1)C1(C(=O)N2CCNC3(CC3)C2)CC1 [Example 52, (5R,6S)-5-(4-chloro-3-fluorophenyl)-6-(4-chlorophenyl)-N-[1-(4,7-diazaspiro[2.5]oct-7-ylcarbonyl)cyclopropyl]-N-ethyl-3-isopropyl-6-methyl-5,6-dihydroimidazo[2,1-b][1,3]thiazole-2-carboxamide]
- IC50: < 200 nM

Compound: CCN(C(=O)C1=C(C(C)C)N2C(=N[C@@](C)(c3ccc(Cl)nc3)[C@H]2c2ccc(Cl)c(F)c2)S1)C1(C(=O)N2CCNC3(CC3)C2)CC1 [Example 53, (5R,6S)-5-(4-chloro-3-fluorophenyl)-6-(6-chloropyridin-3-yl)-N-[1-(4,7-diazaspiro[2.5]oct-7-ylcarbonyl)cyclopropyl]-N-ethyl-3-isopropyl-6-methyl-5,6-dihydroimidazo[2,1-b][1,3]thiazole-2-carboxamide]
- IC50: < 200 nM

Compound: CCN(C(=O)C1=C(C(C)C)N2C(=N[C@@](C)(c3ccc(Cl)cc3)[C@H]2c2ccc(Cl)cc2)S1)[C@@H](C)C(=O)N1CCNC2(CC2)C1 [Example 54, (5R,6S)-5,6-bis(4-chlorophenyl)-N-[(1S)-2-(4,7-diazaspiro[2.5]oct-7-yl)-1-methyl-2-oxoethyl]-N-ethyl-3-isopropyl-6-methyl-5,6-dihydroimidazo[2,1-b][1,3]thiazole-2-carboxamide]
- IC50: < 200 nM

Compound: CC[C@@H]1CC[C@@H](C(=O)N2C[C@@H](C)NC3(CC3)C2)N1C(=O)C1=C(C(C)C)N2C(=N[C@@](C)(c3ccc(Cl)nc3)[C@H]2c2ccc(Cl)c(F)c2)S1 [Example 55, (5R)-7-[(5R)-1-{[(5R,6S)-5-(4-chloro-3-fluorophenyl)-6-(6-chloropyridin-3-yl)-3-isopropyl-6-methyl-5,6-dihydroimidazo[2,1-b][1,3]thiazol-2-yl]carbonyl}-5-ethyl-L-prolyl]-5-methyl-4,7-diazaspiro[2.5]octane]
- IC50: < 200 nM

Compound: CC[C@@H]1CC[C@@H](C(=O)N2CC3(CC3)NC[C@@H]2C)N1C(=O)C1=C(C(C)C)N2C(=N[C@@](C)(c3ccc(Cl)nc3)[C@H]2c2ccc(Cl)c(F)c2)S1 [Example 56, (6S)-7-[(5R)-1-{[(5R,6S)-5-(4-chloro-3-fluorophenyl)-6-(6-chloropyridin-3-yl)-3-isopropyl-6-methyl-5,6-dihydroimidazo[2,1-b][1,3]thiazol-2-yl]carbonyl}-5-ethyl-L-prolyl]-6-methyl-4,7-diazaspiro[2.5]octane]
- IC50: < 200 nM

Compound: CC(C)C1=C(C(=O)N2CCC[C@H]2C(=O)N2CC3(CC3)NC[C@@H]2C)SC2=N[C@@](C)(c3ccc(Cl)nc3)[C@@H](c3ccc(Cl)c(F)c3)N21 [Example 57, (6S)-7-(1-{[(5R,6S)-5-(4-chloro-3-fluorophenyl)-6-(6-chloropyridin-3-yl)-3-isopropyl-6-methyl-5,6-dihydroimidazo[2,1-b][1,3]thiazol-2-yl]carbonyl}-L-prolyl)-6-methyl-4,7-diazaspiro[2.5]octane]
- IC50: < 200 nM

Compound: CC[C@H]1CNC2(CC2)CN1C(=O)[C@@H]1CC[C@@H](C)N1C(=O)C1=C(C(C)C)N2C(=N[C@@](C)(c3ccc(Cl)nc3)[C@H]2c2ccc(Cl)c(F)c2)S1 [Example 58, (6S)-7-[(5R)-1-{[(5R,6S)-5-(4-chloro-3-fluorophenyl)-6-(6-chloropyridin-3-yl)-3-isopropyl-6-methyl-5,6-dihydroimidazo[2,1-b][1,3]thiazol-2-yl]carbonyl}-5-methyl-L-prolyl]-6-ethyl-4,7-diazaspiro[2.5]octane]
- IC50: < 200 nM

Compound: CC[C@@H]1CNC2(CC2)CN1C(=O)[C@@H]1CC[C@@H](C)N1C(=O)C1=C(C(C)C)N2C(=N[C@@](C)(c3ccc(Cl)nc3)[C@H]2c2ccc(Cl)c(F)c2)S1 [Example 59, (6R)-7-[(5R)-1-{[(5R,6S)-5-(4-chloro-3-fluorophenyl)-6-(6-chloropyridin-3-yl)-3-isopropyl-6-methyl-5,6-dihydroimidazo[2,1-b][1,3]thiazol-2-yl]carbonyl}-5-methyl-L-prolyl]-6-ethyl-4,7-diazaspiro[2.5]octane]
- IC50: < 200 nM

Compound: CC(C)C1=C(C(=O)N2[C@H](C)CC[C@H]2C(=O)N2CC3(CC3)N(C(=O)C(F)(F)F)C[C@@H]2C)SC2=N[C@@](C)(c3ccc(Cl)nc3)[C@@H](c3ccc(Cl)c(F)c3)N21 [Example 60, (6S)-7-[(5R)-1-{[(5R, 6S)-5-(4-chloro-3-fluorophenyl)-6-(6-chloropyridin-3-yl)-3-isopropyl-6-methyl-5,6-dihydroimidazo[2,1-b][1,3]thiazol-2-yl]carbonyl}-5-methyl-L-prolyl]-6-methyl-4-(trifluoroacetyl)-4,7-diazaspiro[2.5]octane]
- IC50: < 200 nM

Compound: CC[C@H]1CNC2(CC2)CN1C(=O)[C@@H]1CCCN1C(=O)C1=C(C(C)C)N2C(=N[C@@](C)(c3ccc(Cl)nc3)[C@H]2c2ccc(Cl)c(F)c2)S1 [Example 61, (6S)-7-(1-{[(5R,6S)-5-(4-chloro-3-fluorophenyl)-6-(6-chloropyridin-3-yl)-3-isopropyl-6-methyl-5,6-dihydroimidazo[2,1-b][1,3]thiazol-2-yl]carbonyl}-L-prolyl)-6-ethyl-4,7-diazaspiro[2.5]octane]
- IC50: < 200 nM

From patent publication EP2298778A1, “IMIDAZOTHIAZOLE DERIVATIVE HAVING 4,7-DIAZASPIROÝ2.5¨OCTANE RING STRUCTURE” (Daiichi Sankyo Company, Limited, priority 2008, dated 2009)
